Results are given in words; binding and its absence hold for the method and conditions named. In cells and extracts the contact can be indirect. Some binding calls cover weakened binding; strength is not graded here.
Legend:
[1] = target: myc-tagged S. pombe Rad3 (full length Rad3 with two myc epitope tags at the N terminus) (Schizosaccharomyces pombe) (UniProt Q02099); assay: reciprocal co-immunoprecipitation from S. pombe cells expressing ATR and myc-tagged Rad3
[2] = target: myc-tagged S. pombe Rad3 (full length Rad3 with two myc epitope tags at the N terminus) (Schizosaccharomyces pombe) (UniProt Q02099); assay: reciprocal co-immunoprecipitation from S. pombe cells expressing both tagged constructs

Sequences of proteins named here, by UniProt entry; tags and fusion partners are left off. A change or cut given only in a name is not applied to a line headed by its entry.
UniProt Q02099: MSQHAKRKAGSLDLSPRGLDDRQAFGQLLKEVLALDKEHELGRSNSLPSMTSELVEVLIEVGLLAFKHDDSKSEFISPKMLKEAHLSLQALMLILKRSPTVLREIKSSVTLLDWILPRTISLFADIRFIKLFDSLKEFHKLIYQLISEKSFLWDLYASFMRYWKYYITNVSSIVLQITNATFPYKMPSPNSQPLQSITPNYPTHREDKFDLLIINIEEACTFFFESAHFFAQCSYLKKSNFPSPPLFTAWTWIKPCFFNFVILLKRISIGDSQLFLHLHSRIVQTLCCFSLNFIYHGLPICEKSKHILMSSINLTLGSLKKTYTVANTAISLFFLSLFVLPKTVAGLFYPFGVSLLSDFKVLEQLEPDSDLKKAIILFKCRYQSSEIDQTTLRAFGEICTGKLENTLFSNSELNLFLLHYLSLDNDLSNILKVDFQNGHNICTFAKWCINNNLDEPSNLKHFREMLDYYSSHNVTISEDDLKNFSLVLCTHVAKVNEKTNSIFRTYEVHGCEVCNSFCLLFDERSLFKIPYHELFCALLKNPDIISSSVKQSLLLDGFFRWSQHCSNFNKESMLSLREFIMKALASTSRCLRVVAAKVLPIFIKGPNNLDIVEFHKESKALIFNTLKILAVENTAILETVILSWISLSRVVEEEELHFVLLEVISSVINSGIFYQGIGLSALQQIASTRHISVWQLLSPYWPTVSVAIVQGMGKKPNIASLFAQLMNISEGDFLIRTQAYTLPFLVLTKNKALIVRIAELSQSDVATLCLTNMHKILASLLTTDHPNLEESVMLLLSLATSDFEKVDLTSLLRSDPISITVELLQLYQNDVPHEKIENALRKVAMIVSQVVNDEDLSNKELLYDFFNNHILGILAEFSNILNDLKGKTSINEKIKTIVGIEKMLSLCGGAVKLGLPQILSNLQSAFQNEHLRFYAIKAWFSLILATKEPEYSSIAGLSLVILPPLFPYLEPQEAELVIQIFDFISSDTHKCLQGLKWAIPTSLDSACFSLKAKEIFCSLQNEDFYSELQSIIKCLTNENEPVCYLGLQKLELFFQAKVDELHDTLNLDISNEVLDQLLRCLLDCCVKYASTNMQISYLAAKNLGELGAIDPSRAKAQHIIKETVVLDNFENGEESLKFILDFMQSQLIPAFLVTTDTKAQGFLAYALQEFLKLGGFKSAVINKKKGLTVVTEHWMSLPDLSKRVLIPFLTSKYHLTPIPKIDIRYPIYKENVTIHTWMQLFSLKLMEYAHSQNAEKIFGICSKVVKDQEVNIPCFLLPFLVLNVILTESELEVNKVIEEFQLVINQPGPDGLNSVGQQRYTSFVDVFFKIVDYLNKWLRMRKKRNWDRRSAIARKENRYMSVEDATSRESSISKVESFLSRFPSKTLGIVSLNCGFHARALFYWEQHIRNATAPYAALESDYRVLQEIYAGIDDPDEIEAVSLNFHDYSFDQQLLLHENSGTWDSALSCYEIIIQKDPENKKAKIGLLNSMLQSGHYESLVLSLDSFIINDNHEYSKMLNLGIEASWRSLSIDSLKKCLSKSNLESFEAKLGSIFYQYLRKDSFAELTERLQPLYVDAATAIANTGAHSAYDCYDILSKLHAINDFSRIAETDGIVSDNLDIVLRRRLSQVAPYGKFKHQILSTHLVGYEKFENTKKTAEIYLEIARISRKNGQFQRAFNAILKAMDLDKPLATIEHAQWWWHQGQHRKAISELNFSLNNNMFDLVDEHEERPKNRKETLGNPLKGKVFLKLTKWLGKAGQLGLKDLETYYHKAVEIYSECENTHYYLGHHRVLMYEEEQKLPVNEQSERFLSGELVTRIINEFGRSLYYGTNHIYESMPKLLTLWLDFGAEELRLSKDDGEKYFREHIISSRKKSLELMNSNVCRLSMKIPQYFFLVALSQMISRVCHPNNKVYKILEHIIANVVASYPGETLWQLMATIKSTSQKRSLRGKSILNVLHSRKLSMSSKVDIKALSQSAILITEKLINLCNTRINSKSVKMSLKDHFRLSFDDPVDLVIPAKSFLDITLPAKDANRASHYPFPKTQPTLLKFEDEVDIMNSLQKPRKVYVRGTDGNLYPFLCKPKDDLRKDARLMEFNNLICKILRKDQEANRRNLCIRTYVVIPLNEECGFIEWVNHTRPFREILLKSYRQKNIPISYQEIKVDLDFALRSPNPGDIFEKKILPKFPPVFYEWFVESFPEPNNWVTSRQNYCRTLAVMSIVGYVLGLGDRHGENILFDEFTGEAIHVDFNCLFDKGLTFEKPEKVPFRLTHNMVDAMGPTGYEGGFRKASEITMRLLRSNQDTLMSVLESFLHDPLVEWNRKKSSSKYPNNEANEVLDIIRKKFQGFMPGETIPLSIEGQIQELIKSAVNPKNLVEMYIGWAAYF
UniProt Q13535: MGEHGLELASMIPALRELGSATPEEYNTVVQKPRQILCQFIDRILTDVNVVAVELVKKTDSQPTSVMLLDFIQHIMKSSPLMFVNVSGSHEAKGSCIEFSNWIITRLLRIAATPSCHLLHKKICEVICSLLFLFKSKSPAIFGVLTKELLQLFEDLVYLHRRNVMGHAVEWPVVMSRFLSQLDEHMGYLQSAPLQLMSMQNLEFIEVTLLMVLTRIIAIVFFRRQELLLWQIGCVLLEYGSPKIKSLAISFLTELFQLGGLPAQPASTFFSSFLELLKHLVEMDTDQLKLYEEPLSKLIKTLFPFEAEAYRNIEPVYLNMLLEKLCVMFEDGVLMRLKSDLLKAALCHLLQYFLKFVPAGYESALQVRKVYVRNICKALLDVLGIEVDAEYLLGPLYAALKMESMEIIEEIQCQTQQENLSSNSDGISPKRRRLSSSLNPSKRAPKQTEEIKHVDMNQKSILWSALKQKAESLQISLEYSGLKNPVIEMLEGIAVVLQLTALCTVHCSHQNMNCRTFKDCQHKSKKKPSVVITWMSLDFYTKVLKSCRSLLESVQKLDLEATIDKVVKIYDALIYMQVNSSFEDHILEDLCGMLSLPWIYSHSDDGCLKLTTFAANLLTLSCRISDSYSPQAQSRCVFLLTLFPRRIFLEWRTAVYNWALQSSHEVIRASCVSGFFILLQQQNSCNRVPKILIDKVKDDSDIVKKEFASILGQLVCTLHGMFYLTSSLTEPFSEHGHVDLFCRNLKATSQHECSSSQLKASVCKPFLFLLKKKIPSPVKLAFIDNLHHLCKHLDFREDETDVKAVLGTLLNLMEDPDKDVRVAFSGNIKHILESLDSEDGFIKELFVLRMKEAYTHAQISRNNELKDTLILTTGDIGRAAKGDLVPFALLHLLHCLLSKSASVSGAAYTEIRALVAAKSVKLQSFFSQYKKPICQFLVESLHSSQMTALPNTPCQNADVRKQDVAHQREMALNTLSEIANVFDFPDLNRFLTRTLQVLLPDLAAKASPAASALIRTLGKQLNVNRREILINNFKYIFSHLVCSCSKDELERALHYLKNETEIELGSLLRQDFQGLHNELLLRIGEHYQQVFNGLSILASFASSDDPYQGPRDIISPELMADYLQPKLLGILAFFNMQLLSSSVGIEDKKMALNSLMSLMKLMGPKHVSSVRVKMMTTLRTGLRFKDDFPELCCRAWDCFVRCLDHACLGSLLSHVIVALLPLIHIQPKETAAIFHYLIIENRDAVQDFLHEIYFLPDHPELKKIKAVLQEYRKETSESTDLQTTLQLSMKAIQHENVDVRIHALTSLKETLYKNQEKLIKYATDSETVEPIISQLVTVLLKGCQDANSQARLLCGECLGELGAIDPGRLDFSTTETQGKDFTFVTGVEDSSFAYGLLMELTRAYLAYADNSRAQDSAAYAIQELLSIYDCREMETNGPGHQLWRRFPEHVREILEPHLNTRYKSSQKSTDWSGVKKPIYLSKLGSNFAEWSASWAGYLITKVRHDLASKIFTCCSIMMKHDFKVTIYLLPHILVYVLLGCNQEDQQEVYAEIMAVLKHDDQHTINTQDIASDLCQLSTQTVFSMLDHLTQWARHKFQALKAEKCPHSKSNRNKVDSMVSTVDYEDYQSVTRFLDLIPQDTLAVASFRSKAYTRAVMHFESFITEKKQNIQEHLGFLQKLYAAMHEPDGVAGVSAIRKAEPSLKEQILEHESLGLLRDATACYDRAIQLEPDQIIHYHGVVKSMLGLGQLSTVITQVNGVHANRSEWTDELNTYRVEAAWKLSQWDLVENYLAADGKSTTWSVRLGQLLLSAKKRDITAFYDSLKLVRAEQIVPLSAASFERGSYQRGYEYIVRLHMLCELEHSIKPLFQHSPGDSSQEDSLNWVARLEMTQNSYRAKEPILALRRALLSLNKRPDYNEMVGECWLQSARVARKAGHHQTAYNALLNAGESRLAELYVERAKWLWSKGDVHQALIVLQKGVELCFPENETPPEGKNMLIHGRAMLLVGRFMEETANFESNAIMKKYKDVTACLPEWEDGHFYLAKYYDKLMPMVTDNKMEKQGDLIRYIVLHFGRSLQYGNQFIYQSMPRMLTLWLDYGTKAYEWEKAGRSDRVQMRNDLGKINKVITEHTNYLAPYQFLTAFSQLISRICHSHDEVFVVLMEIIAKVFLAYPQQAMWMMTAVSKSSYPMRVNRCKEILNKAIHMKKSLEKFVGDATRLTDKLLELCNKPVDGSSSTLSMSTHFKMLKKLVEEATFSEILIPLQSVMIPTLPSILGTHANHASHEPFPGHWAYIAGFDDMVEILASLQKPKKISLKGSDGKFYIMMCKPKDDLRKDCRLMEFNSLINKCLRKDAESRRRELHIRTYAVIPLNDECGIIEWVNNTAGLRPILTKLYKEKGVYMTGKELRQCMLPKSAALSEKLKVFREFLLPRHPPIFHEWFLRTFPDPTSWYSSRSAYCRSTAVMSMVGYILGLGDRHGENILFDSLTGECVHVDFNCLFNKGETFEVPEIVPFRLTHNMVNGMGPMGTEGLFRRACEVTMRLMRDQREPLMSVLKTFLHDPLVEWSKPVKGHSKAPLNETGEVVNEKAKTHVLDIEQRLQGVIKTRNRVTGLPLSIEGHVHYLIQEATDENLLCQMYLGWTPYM

Row | Substance | binding [1] | binding [2]
1 | human ATR protein (from UniProt Q13535 1-2644) (enzyme) | binds | –
2 | HA tagged S. pombe Rad3 (full length Rad3 with a triple HA epitope tag at the N terminus) (from UniProt Q02099 1-2386) (enzyme) | – | binds
